This series is described as follows: peptide made by a vendor. The settings on record: whole synthesis.

[ ]: non-standard residue; d: D form. Cha = N[C@@H](CC1CCCCC1)C(=O)O; Ahx = NCCCCCC(=O)O

Turning to Ac-[dA]K[Cha]VAAWTLKAAA[dA][Ahx]C-OH, the “purity (crude or final not stated)” value was “minimum purity of 95%”.

The record behind these values is patent US20190314394A1 (priority 2013, published 2019).
